No constants are given. Whether binding was seen depends on the method and setting. Some binding calls cover weakened binding; strength is not graded here. For some of these results: Sequences can lack the tags named with a protein.
T1: hHER4-Fc (human) (UniProt Q15303)
T1 sequence (receptor-Fc fusion, looked up): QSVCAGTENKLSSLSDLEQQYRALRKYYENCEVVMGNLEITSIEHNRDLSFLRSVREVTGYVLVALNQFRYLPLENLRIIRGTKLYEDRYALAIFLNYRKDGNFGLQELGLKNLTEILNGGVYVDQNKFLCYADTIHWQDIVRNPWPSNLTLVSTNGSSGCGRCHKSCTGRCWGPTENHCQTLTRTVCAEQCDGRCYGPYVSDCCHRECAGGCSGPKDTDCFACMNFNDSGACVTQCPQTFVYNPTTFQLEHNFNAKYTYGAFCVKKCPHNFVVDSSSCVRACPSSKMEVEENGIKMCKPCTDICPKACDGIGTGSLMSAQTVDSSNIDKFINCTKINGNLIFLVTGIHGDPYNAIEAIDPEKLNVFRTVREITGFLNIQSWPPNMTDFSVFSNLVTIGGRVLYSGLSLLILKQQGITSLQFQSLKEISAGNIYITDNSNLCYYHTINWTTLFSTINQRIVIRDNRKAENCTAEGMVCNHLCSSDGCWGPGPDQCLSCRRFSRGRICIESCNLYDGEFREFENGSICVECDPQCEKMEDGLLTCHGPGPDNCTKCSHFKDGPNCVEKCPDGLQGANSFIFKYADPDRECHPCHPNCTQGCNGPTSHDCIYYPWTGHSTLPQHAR

Protein sequences, listed by entry. Tags and fused reporters are not part of them. Residues count along the entry.
UniProt P21860, residues 20-643: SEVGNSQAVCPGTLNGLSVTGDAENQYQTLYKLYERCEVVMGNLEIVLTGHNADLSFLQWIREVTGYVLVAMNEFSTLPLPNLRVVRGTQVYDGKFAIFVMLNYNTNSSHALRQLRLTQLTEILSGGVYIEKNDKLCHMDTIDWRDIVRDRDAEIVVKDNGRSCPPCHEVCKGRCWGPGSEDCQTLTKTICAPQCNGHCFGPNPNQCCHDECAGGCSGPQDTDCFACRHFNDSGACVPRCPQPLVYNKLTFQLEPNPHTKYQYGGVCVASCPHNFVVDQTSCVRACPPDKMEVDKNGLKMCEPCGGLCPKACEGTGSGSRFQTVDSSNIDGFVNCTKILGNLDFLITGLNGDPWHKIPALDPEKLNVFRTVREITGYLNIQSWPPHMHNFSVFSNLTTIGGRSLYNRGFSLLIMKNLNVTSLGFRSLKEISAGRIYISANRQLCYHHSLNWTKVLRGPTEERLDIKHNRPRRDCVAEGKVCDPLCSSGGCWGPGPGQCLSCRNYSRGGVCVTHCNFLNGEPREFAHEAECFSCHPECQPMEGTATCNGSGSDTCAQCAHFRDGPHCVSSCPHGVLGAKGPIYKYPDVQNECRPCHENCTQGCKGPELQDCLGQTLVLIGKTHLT


What was measured:
[1] = target: hHER3-Fc (human) (UniProt P21860); experiment: ELISA specificity panel on ErbB family receptors, VHH titrated, A450
[2] = target: T1, hHER4-Fc (human); experiment: as above
[3] = target: hEGFR (ECD); experiment: as above
[4] = target: human HER2 receptor (human, UniProt P04626); experiment: ELISA on human HER2 receptor, purified VHH titrated, A450

binding [1] | binding [2] | binding [3] | binding [4] | Binder
no binding (tested: 10000 nM) | no binding (tested: 10000 nM) | no binding (tested: 10000 nM) |  | VHH_130 (VHH, also called VHH ID 130) VHH: EVQLVESGGGLVQAGGSLRLSCAASGITFSINTMGWYRQAPGKQRELVALISSIGDTYYADSVRGRFTISRDNAKNTVYLQMNSLKPEDTAVYYCRRFRTAAQGTDYWGQGTQVTVSS
 |  |  | binds | VHH_108 (VHH, also called VHH ID 108) VHH: QVQLVESGGGLVQAGGSLRLSCAASGRTFSSYAMGWFRQAPGLEREFVAAIARGGVSTGYADSVKGRFAISRDNAKNMVYLQMNSLKPEDTAVYYCATYFWGSPHYWGQGTQVTVSS

Reference: US20260184811A1 (CEREIUS, published 2026)
